The values below come from publication PMC5493369.

These are yes or no findings as the source states them, for the method shown. Some results given as binding are weak or reduced against the parent protein; the word gives no strength.

The experiment addresses Apoferritin (UniProt P02791). The experiment can be described thus: native gel or EMSA; blue native PAGE (BN-PAGE); proteins at 0.3 mg/ml in 10 mM Tris pH 7.5, 50 mM NaCl; run at 4°C with Coomassie G-250 in the cathode buffer; both purified. In general terms: In EMSA bound probe runs differently from free probe, usually more slowly.

B1: Apoferritin (protein, UniProt P02791 1-175)
chain: MSSQIRQNYSTEVEAAVNRLVNLYLRASYTYLSLGFYFDRDDVALEGVCHFFRELAEEKREGAERLLKMQNQRGGRALFQDLQKPSQDEWGTTLDAMKAAIVLEKSLNQALLDLHALGSAQADPHLCDFLESHFLDEEVKLIKKMGDHLTNIQRLVGSQAGLGEYLFERLTLKHD
In the case of B1, the binding entry was “binds”.
